# Assay results: PubChem BioAssay AID2685 (National Center for Advancing Translational Sciences (NCATS), 2010)
# This is one part of the list. Shown are side measurements of this screen, not its main read-out; they come without a call. The list favours compounds with an active or inconclusive main result. Potencies come from curve fits of mixed quality, noted in brackets.
# Experiment: qHTS Assay for Lipid Storage Modulators in Drosophila S3 Cells;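 as to cell number change: cells counted by Cell Tracker Red CMTPX staining in the red channel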
# Conditions: BODIPY lipid droplet fluorescence, 18-24 h; for cell number change: measured here: cell count max response, cells fed with added oleic acid
# How it was run: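 Drosophila S3 cells got compounds at several concentrations plus oleic acid (400 uM solution). Laser-scanning cytometry with 488 nm excitation read lipid droplets at 500-530 nm and cells at 575-640 nm. Percent activity was relative to 20 uM Triacsin C.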
# [1] = measured here: lipid fluorescence (Fed channel) AC50, cells fed with added oleic acid
# [2] = measured here: cell number channel AC50, cells fed with added oleic acid
Structure (SMILES),cell number change,AC50 [1],AC50 [2]
CC(=O)OC(CC(=O)O)C[N+](C)(C)C (centres undefined),36.4%,"6.51 µM [rising, single point]",
CC(C)(C)n1nnnc1C(c1ccc2ncccc2c1)N1CCSCC1 (centres undefined),13%,"0.326 µM [rising, full curve, poor fit]",
CC(C)c1ccc(-c2nc(N3CCCC3)nc3n[nH]c(N)c23)cc1,,"6.51 µM [rising, single point]",
CN(Cc1cccs1)c1ncnc2sccc12,-89.5%,"29.1 µM [falling, single point]","29.1 µM [falling, single point]"
O=C(CSc1nnc(CNC(=O)c2c(F)cccc2Cl)o1)NC1CCCCC1,-9.35%,"1.46 µM [rising, full curve, poor fit]","6.51 µM [falling, single point]"
O=C(CCn1ccnc1)Nc1ccc2ccccc2c1,35.6%,"4.11 µM [falling, partial curve]","18.4 µM [rising, single point]"
COCCNc1nc2nonc2nc1N1C[C@H]2CC[C@H]1C2,21%,"0.517 µM [rising, single point]",
Cc1ccnc(NC(=O)c2ccc(NS(=O)(=O)/C=C/c3ccccc3)cc2)c1,12.6%,"1.16 µM [rising, full curve]",
CN(CC(=O)Nc1cccc(F)c1)C(=O)CN1C(=O)NC2(CCCC2)C1=O,15%,"32.6 µM [rising, single point]",
COC(=O)C1=CN(c2ccc(OC)cc2)C=C(C(=O)OC)C1c1ccc(C)c([N+](=O)[O-])c1,17.8%,"23.1 µM [rising, single point]",
Clc1ccc2c(NCc3ccccc3)ccnc2c1,4.17%,,
O=C(NCC1CCCO1)/C(=C\c1ccccc1)NC(=O)c1ccccc1 (centres undefined),-2.97%,,
O=C(N/N=C/c1ccccc1F)c1ccc(COc2ccccc2Cl)o1,-24.2%,"6.51 µM [rising, single point]","1.46 µM [rising, partial curve]"
Cc1[nH]c(=O)[nH]c(=O)c1S(=O)(=O)N(C)Cc1ccccc1,5.58%,,
CC1(C)NC(=O)N(CC(=O)N2CCN(S(=O)(=O)c3ccccc3C(F)(F)F)CC2)C1=O,9.37%,,
O=C(CC12CC3CC(CC(C3)C1)C2)N/N=C/c1ccncc1,19%,"0.0651 µM [rising, full curve, poor fit]",
O=C(NC1CCCC1)c1cccc(Oc2ccccc2)c1,12%,,
CC1CCN(C(=O)c2ccc(CSc3nc4ccncc4n3Cc3ccc(F)cc3)cc2)CC1,-0.104%,"14.6 µM [rising, partial curve]",
CCCCCCSc1ccc([C@@H]2[C@H]3C(=O)N(C)C(=O)[C@H]3[C@]3(C(=O)OC)CCCCN23)cc1OC,-39.9%,"6.51 µM [falling, partial curve]","10.3 µM [falling, partial curve]"
CC(C)c1nc(N2CCOCC2)c(C#N)c2c1CCC2,-25.8%,"32.6 µM [falling, single point]",

Structure (SMILES),cell number change,AC50 [1],AC50 [2]
CC1CC(C)(C)CC2(C1)NC(=O)N(CC(=O)Nc1ccc3[nH]c(=O)[nH]c3c1)C2=O (centres undefined),-42.6%,"16.4 µM [falling, single point]","29.1 µM [falling, single point]"
CCOC(=O)C(=O)Nc1ccccc1C(=O)NCc1ccccc1,-6.37%,,
CCCc1cc(=O)[nH]c(SCc2cccc(C)c2)n1,-31.5%,"18.4 µM [falling, single point]","16.4 µM [falling, single point]"
C=CCn1c(SCC(N)=O)nnc1-c1cnccn1,-3.53%,"3.26 µM [falling, partial curve]",
CC1=NN(c2ccccc2)C(=O)C1N=Nc1ccc(N)cc1 (centres undefined),-91%,"14.6 µM [falling, partial curve]","18.4 µM [falling, partial curve]"
CC(C)(C)[C@H]1C=C(C(=O)N2CCN(Cc3ccccc3)CC2)O[C@@H](OCc2ccc(CO)cc2)C1,-19.4%,"8.2 µM [falling, partial curve]",
COc1ccccc1N(CC(=O)Nc1ccccc1)S(=O)(=O)c1cccs1,-22.5%,"32.6 µM [rising, single point]",
CC(=O)N/N=C(\C)c1cccc(NC(=O)c2cccs2)c1,9.56%,"3.26 µM [rising, full curve]",
O=C1/C(=C/c2ccc(F)cc2)Oc2cc(OC(=O)N3CCOCC3)ccc21,-48.5%,,"5.17 µM [falling, full curve]"
CCOc1ccc(-c2nnn(CC(=O)NCc3ccccc3)n2)cc1,30.4%,"0.259 µM [rising, full curve]",
Cc1nc(Sc2nnnn2C)c2c3c(sc2n1)CCC3,-25.3%,"4.11 µM [rising, single point]",
O=C(CNS(=O)(=O)c1ccccc1)N1CCc2ccccc2C1,-8.21%,"4.11 µM [rising, full curve]",
COc1ccc([N+](=O)[O-])cc1N(CC(=O)Nc1ccccc1C(=O)N1CCOCC1)S(C)(=O)=O,6.81%,,
CCCCCC(C)n1[nH]c(=O)cc1N (centres undefined),-37.5%,"6.51 µM [falling, single point]","1.03 µM [falling, full curve]"
CN1CCN(S(=O)(=O)c2cccc(S(=O)(=O)c3ccc(Cl)cc3)c2)CC1,-2.49%,"1.64 µM [rising, partial curve]",
Cc1ccc(NC(=O)CSc2nnc(CCC(=O)O)c(=O)[nH]2)cc1,-33.6%,"16.4 µM [falling, single point]",
O=Cc1cc(CCC(=O)O)ccc1O,31.7%,,
O=C(NCCN1CCOCC1)N1CCOCC1,-16.7%,"0.82 µM [falling, full curve, poor fit]",
CC(C)CCN(C(=O)c1cn2ccccc2n1)c1c(N)n(Cc2ccccc2)c(=O)[nH]c1=O,55%,"3.66 µM [rising, partial curve]","8.2 µM [rising, partial curve]"
CC(C)c1nnc2c(N(C)S(=O)(=O)c3ccccc3)nc3ccccc3n12,24%,"13 µM [falling, partial curve]",

Structure (SMILES),cell number change,AC50 [1],AC50 [2]
CCOc1ccc(S(=O)(=O)N2CCC(C(=O)NCc3ccco3)CC2)cc1,18.5%,"29.1 µM [rising, single point]",
Cc1cc(/C=C2\NC(=O)N(Cc3ccc(Cl)cc3)C2=O)c(C)n1C,-1.09%,,
CCc1ccccc1NC(=O)CN(c1ccc(OC)cc1OC)S(=O)(=O)c1ccccc1,,"20.6 µM [falling, single point]",
NNCCc1ccccc1,4.15%,"8.2 µM [rising, partial curve, poor fit]",
COc1cccc(C(=O)O[C@H]2[C@H](C)NS(=O)(=O)[C@H]3C[C@@H]4C=C[C@]23O4)c1,-20.2%,,"0.82 µM [rising, single point]"
COc1cc(C(=O)NCC2(c3ccccc3)CCCC2)cc(OC)c1OC,-28%,"29.1 µM [falling, single point]",
O=C(C1CCCC1)N1CCCC(Nc2ccccc2)C1 (centres undefined),5.28%,"6.51 µM [rising, full curve, poor fit]",
CCOC(=O)c1ccccc1NC(=O)Cc1sc(-c2cccnc2)nc1-c1ccc(C)cc1,20.4%,"1.84 µM [rising, partial curve, poor fit]",
CCCCc1nc2n[nH]c(N)c2c2c1CCC2,35.9%,,"3.26 µM [rising, full curve]"
O=C(CCC1N=C2c3ccccc3N=C(SCc3cccc(Cl)c3)N2C1=O)NCc1ccco1 (centres undefined),-20.4%,"29.1 µM [falling, single point]",
COc1ccc(-n2nc(C(=O)NCC(=O)Nc3cc(OC)c(OC)c(OC)c3)c3ccccc3c2=O)cc1Cl,142%,,"20.6 µM [rising, partial curve]"
CCOc1ccccc1NC(=O)/C(C#N)=C/c1cccnc1,-9.9%,"0.58 µM [rising, single point]",
O=C(CSc1nc2c(c(C(F)(F)F)n1)CCc1ccccc1-2)NCc1ccco1,27.3%,"0.082 µM [rising, single point]","3.26 µM [rising, full curve, poor fit]"
CC1CC(=O)N(c2ccc(N(C)Cc3ccccc3)c([N+](=O)[O-])c2)C1=O (centres undefined),-49.3%,"2.06 µM [falling, partial curve]","29.1 µM [falling, single point]"
O=C1Cc2cc(NS(=O)(=O)c3ccc(F)cc3)cc3c2N1CCC3,,"0.116 µM [rising, full curve, poor fit]",
CCOC(=O)N1CCN(C(=O)C(=O)Nc2sc3c(c2C(=O)O)CC(C)(C)OC3)CC1,-14.3%,"1.84 µM [rising, partial curve, poor fit]",
Fc1ccc(CN2C3=NCCCN3c3ccccc32)cc1,,"0.082 µM [rising, full curve, poor fit]","0.00517 µM [rising, full curve, poor fit]"
COc1ccc(CC(=O)N2CCN(S(=O)(=O)c3cc(Cl)ccc3Cl)CC2)cc1,-0.251%,"0.103 µM [rising, partial curve, poor fit]",
Cc1ccc(-c2nc3ncccc3o2)cc1NC(=S)NC(=O)c1ccco1,21.2%,,
Cn1c(N)c(S(=O)(=O)NCc2ccc(Cl)cc2)c(=O)n(C)c1=O,,"0.103 µM [falling, full curve, poor fit]","7.31 µM [falling, partial curve, poor fit]"

# Quoted at random: 5 entries already listed
Structure (SMILES),cell number change,AC50 [1],AC50 [2]
CCOc1ccccc1NC(=O)/C(C#N)=C/c1cccnc1,-9.9%,"0.58 µM [rising, single point]",
O=C(CSc1nc2c(c(C(F)(F)F)n1)CCc1ccccc1-2)NCc1ccco1,27.3%,"0.082 µM [rising, single point]","3.26 µM [rising, full curve, poor fit]"
O=C(CCC1N=C2c3ccccc3N=C(SCc3cccc(Cl)c3)N2C1=O)NCc1ccco1 (centres undefined),-20.4%,"29.1 µM [falling, single point]",
CCCCc1nc2n[nH]c(N)c2c2c1CCC2,35.9%,,"3.26 µM [rising, full curve]"
CCc1ccccc1NC(=O)CN(c1ccc(OC)cc1OC)S(=O)(=O)c1ccccc1,,"20.6 µM [falling, single point]",
